Reference: patent publication US7141546B1 (priority 2001, dated 2006)

Test: general procedure: Boc solid-phase peptide synthesis; MBHA hydrochloride resin (Bachem), substitution about 0.28 mequiv/g; DIC (DIC/HOBt for Asn, Gln); BOP for lactam cyclization
Details: whole synthesis, HPLC and capillary zone electrophoresis (CZE), scale of the general procedure about 3 grams of resin

Substance | final HPLC purity | final purity (method not given)
Ac-Asp-Leu-Ser-D-Phe-His-CML-Leu-Arg-Lys-Nle-Ile-Glu-Ile-Glu-Lys-Gln-Glu-Lys-Glu-Lys-Gln-Gln-Ala-Gln-Asn-Asn-Lys(Ac)-Leu-Leu-Leu-Asp-CML-Ile-NH2 | greater than 98% | –
(cyclo 32–35)D-Phe-His-Leu-Leu-Arg-Glu-Val-Leu-Glu-Nle-Ala-Arg-Ala-Glu-Gln-Leu-Ala-Gln-Gln-Ala-Glu-Ser-Asn-Lys-Lys-Leu-Nle-Glu-Ile-Ile-NH2 | – | about 97%
